PubChem BioAssay AID651768 (National Center for Advancing Translational Sciences (NCATS), 2012)
Hit rate of the full screen: of about 360,000 compounds, about 1,700 (0.47%) were called active. Inconclusive results, whose numbers are uncertain, are shown with a selection of clear calls. The call rests on the fitted dose curve; in most records, active means well fitted inhibition curve with a large enough effect; inconclusive means small, poorly fitted or top-dose-only effect; inactive means no such curve, though single readings can be large or run the other way. Potencies of inconclusive entries are doubtful fits and often do not repeat.

The chains behind the UniProt entries cited, without tags or fusion partners.
UniProt Q14191, whole entry, looked up: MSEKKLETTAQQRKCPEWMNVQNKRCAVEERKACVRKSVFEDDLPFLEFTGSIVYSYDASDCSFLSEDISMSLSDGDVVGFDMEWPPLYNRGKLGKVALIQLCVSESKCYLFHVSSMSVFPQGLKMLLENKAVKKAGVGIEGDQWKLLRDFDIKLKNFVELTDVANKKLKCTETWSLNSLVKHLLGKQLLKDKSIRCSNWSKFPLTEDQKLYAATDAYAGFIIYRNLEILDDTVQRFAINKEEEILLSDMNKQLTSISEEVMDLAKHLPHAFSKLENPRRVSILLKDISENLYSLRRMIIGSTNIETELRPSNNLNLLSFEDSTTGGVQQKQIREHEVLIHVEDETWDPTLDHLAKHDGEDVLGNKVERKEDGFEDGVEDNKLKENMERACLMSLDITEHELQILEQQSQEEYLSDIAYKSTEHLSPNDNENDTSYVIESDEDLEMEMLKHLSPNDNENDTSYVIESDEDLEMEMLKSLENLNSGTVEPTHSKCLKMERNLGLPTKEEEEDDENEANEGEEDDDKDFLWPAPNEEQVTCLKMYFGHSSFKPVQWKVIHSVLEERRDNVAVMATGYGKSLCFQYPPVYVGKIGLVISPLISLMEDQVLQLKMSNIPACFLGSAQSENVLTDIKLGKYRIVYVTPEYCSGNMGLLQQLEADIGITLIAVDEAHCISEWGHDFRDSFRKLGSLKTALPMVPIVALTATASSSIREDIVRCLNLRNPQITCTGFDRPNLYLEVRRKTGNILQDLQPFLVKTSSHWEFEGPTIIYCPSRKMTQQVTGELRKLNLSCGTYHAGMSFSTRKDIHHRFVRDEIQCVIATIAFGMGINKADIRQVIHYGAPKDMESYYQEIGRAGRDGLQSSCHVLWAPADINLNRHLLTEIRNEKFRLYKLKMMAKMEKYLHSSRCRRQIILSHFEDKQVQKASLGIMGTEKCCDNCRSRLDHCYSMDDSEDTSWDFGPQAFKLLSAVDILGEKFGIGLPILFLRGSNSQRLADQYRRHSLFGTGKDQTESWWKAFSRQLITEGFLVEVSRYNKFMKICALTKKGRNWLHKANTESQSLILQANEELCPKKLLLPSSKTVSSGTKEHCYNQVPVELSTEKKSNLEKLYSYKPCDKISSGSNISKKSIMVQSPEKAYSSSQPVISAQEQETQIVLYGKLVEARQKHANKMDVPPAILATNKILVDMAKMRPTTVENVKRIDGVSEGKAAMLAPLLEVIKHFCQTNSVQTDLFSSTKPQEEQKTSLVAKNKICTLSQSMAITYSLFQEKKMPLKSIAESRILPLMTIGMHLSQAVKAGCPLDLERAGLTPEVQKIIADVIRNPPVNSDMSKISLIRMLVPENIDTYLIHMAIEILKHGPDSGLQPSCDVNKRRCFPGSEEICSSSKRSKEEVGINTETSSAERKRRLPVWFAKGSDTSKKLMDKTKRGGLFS

target: Bifunctional 3'-5' exonuclease/ATP-dependent helicase WRN (Homo sapiens) (UniProt Q14191); assay: qHTS for Inhibitors of WRN Helicase; settings: WRN helicase unwinding, fluorescent forked duplex, kinetic; activity change, negative = inhibition: at 114 µM (top of the series) unless noted; further: nearly all actives have a fitted effect of over 55% in size
Procedure, shortened: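 Kinetic fluorescence helicase assay: unwinding of a quenched forked DNA duplex (100 nM final) with 2 mM ATP final raises red fluorescence (525/598 nm). Compounds sat 15 min at room temperature with 20 nM WRN beforehand.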
On the % scale 0 is the no-effect control and ±100 the full control effect; potency means the concentration at half of the fitted maximal effect.

| SMILES | activity change, negative = inhibition | Potency |
| --- | --- | --- |
| Cc1nc([N+](=O)[O-])c(Br)n1CC(=O)c1ccc(Cl)cc1 | inconclusive: -46.1% [inhibitor] [at 57.1 µM] |  |
| CC1=NOC(=O)/C1=C\c1ccc(-c2ccc(Cl)cc2Cl)o1 |  | inconclusive: 5.32 µM [inhibitor, partial curve] |
| COc1cccc(-n2nc(C(N)=O)c(O)cc2=O)c1 | inactive: 8.49% |  |
| COc1cc(NC(=O)c2c(F)c(F)c(OC)c(F)c2F)ccc1NC(=O)c1cccs1 |  | inconclusive: 25.1 µM [inhibitor, full curve, poor fit] |
| Cc1ccc2cc(C#N)c(SCC(=O)NCc3ccco3)nc2c1 | inactive: -19.8% |  |
| Cc1cc(C(=O)CSc2nnc(N)s2)c(C)n1-c1c(C)n(C)n(-c2ccccc2)c1=O |  | inconclusive: 89.1 µM [inhibitor, single point] |
| CCOc1nc(NC(=O)NS(=O)(=O)c2cccc(Cl)c2)nc(-c2ccccc2)n1 |  | inconclusive: 25.1 µM [inhibitor, single point] |
| O=C(/C=C1\OCc2ccccc21)c1ccccc1 | inactive: 7.7% |  |
| C=CC[n+]1c(/C=C2\C=Cc3cc(C)ccc3N2CC)ccc2ccccc21 |  | active: 50.1 µM |
| Cn1ncc(Br)c1C(=O)N/N=C/c1cccc(OC2CSC2)c1 | inactive: -0.871% |  |
| O=C1NC(=S)S/C1=C\c1coc2ccc(O)cc2c1=O |  | inconclusive: 28.2 µM [inhibitor, partial curve] |
| CCOc1ccc(S(=O)(=O)N(CC(=O)Nc2cccnc2)c2ccc(F)cc2)cc1 |  | inconclusive: 39.8 µM [inhibitor, full curve, poor fit] |
| O=c1[nH]c2cc3c(cc2cc1CN(Cc1cccnc1)Cc1nnnn1Cc1ccco1)OCCO3 |  | active: 56.2 µM |
| CCOC(=O)Nc1ccc2c(c1)C(=NNC(N)=S)c1ccccc1-2 |  | inconclusive: 17.8 µM [inhibitor, full curve] |
| Cc1sc(NC(=O)c2ccccc2)c(C(=O)c2ccccc2)c1C |  | inconclusive: 70.8 µM [inhibitor, single point] |
| O=C1SC(SCc2ccccc2)=N/C1=C\c1ccc(C(=O)O)cc1 | inactive: -28.6% |  |
| Cn1c(=O)c([N+](=O)[O-])c(N2CCN(Cc3ccc4c(c3)OCO4)CC2)c2ccccc21 |  | inconclusive: 3.55 µM [inhibitor, full curve] |
| O=C(c1ccco1)N1CCN(C(=O)c2cc(-c3ccccc3)nc3ccccc23)CC1 | inactive: -2.39% |  |
| CN(C)c1nccc(NCc2ccccc2)c1C#N |  | inconclusive: 31.6 µM [inhibitor, single point] |
| COc1ccccc1/C=C(/CC(=O)NCc1ccc(F)cc1)c1nc2ccccc2s1 | inactive: -8.49% [at 57.1 µM] |  |

Some values from the list.
In Potency, C=CC[n+]1c(/C=C2\C=Cc3cc(C)ccc3N2CC)ccc2ccccc21 is listed with active: 50.1 µM
In activity change, negative = inhibition, O=C(/C=C1\OCc2ccccc21)c1ccccc1 is listed with inactive: 7.7%
